Data published in the supplement of paper PMC10849652.
The list shows a part of the results.

Sequences of proteins named here, by UniProt entry; tags and fusion partners are left off. A change or cut given only in a name is not applied to a line headed by its entry.
UniProt Q56P03: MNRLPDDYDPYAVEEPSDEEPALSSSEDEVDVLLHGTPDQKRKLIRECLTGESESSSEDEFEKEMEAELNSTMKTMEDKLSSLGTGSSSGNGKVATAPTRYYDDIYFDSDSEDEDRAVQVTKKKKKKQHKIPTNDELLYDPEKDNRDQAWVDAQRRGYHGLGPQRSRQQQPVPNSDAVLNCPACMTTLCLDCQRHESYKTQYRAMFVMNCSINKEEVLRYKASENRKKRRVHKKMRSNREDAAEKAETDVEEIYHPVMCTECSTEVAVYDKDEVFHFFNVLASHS
UniProt P60981: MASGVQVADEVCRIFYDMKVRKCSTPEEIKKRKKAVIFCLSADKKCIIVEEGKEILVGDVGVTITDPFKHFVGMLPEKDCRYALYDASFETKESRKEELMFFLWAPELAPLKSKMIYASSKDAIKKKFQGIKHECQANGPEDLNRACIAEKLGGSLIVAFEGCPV
UniProt Q8N9N8: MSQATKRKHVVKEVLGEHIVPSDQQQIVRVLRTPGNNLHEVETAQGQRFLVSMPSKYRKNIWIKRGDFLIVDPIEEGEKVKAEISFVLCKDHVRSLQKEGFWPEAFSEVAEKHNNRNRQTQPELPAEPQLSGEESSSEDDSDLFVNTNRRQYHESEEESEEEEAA
UniProt P26641, whole entry, looked up: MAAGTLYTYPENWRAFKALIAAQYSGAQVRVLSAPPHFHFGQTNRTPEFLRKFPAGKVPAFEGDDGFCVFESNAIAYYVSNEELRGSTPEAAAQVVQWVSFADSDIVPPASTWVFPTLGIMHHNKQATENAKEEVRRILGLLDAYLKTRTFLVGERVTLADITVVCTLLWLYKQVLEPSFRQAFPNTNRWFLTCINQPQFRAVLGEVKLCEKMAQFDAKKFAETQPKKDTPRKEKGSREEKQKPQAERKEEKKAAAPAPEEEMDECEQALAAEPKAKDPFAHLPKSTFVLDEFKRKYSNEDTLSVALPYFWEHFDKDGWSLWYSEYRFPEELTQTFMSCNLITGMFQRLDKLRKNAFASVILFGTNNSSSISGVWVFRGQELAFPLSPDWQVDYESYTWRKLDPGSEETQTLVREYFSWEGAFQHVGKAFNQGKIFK
UniProt Q9H2P9: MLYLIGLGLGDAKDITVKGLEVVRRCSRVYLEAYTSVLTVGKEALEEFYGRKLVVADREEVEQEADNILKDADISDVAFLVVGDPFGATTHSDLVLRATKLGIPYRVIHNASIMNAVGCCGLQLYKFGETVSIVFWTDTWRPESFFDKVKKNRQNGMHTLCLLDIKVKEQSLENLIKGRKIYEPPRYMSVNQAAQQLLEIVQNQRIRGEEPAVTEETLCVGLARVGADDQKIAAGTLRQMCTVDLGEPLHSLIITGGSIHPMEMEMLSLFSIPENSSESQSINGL
UniProt P33316: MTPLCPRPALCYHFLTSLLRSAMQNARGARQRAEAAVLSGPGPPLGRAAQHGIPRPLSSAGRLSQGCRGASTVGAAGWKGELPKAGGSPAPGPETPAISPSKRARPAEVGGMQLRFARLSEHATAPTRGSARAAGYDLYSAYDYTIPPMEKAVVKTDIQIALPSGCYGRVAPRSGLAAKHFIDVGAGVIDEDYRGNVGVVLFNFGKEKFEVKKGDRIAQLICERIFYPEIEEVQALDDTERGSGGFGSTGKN
UniProt P24534: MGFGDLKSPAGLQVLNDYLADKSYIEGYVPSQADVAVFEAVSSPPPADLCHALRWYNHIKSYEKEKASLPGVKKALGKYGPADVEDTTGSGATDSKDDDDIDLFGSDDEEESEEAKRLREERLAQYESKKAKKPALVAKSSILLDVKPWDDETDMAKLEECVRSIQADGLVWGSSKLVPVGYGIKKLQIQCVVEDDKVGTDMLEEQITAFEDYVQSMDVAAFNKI
UniProt Q96FJ2, whole entry, looked up: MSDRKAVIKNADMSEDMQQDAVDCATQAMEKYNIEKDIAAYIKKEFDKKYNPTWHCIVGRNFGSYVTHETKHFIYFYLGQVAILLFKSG
UniProt Q66K89: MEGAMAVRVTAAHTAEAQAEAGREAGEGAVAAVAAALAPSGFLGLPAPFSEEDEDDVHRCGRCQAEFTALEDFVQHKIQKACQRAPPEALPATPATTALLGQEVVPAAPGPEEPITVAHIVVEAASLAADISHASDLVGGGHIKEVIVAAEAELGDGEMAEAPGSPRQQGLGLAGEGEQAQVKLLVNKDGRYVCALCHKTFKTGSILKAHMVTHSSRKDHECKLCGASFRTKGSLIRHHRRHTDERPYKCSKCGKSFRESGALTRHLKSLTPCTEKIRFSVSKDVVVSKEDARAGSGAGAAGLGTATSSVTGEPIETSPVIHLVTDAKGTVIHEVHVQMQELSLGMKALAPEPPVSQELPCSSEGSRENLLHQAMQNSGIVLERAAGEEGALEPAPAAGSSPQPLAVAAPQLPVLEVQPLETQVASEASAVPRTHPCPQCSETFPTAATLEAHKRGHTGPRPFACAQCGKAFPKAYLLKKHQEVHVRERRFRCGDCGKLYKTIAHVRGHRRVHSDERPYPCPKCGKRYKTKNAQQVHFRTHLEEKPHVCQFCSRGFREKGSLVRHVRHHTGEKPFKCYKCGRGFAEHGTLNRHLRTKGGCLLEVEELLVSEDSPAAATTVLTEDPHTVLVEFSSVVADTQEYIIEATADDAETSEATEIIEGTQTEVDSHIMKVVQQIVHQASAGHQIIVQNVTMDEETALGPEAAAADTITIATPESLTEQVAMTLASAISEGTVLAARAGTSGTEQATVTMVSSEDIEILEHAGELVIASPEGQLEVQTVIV
UniProt Q92785, whole entry, looked up: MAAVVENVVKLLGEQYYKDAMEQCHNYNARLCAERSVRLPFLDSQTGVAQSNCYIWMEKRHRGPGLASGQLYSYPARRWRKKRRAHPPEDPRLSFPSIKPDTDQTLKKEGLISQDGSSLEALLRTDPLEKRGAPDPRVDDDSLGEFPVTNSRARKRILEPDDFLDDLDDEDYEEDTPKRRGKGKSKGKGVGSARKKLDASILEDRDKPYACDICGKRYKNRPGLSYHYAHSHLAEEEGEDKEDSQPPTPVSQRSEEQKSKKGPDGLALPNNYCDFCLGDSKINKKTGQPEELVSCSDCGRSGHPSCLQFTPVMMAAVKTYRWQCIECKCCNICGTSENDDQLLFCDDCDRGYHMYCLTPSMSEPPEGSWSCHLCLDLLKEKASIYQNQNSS
UniProt Q9BQC3: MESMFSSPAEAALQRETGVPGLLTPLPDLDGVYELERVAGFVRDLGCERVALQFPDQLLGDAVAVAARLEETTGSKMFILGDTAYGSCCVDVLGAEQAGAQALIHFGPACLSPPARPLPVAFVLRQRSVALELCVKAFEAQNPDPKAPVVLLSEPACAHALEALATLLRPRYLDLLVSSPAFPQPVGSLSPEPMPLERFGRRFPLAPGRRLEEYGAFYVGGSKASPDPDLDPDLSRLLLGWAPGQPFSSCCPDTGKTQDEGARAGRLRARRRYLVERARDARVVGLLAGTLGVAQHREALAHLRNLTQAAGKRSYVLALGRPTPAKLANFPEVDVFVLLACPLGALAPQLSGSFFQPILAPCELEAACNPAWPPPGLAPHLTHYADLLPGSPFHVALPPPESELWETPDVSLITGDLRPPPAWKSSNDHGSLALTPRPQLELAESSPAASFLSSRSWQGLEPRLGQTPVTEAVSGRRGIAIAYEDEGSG
UniProt O60739, whole entry, looked up: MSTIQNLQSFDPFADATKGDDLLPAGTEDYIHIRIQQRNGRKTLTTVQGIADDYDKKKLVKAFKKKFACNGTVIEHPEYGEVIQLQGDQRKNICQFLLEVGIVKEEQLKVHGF
UniProt Q7RTS9: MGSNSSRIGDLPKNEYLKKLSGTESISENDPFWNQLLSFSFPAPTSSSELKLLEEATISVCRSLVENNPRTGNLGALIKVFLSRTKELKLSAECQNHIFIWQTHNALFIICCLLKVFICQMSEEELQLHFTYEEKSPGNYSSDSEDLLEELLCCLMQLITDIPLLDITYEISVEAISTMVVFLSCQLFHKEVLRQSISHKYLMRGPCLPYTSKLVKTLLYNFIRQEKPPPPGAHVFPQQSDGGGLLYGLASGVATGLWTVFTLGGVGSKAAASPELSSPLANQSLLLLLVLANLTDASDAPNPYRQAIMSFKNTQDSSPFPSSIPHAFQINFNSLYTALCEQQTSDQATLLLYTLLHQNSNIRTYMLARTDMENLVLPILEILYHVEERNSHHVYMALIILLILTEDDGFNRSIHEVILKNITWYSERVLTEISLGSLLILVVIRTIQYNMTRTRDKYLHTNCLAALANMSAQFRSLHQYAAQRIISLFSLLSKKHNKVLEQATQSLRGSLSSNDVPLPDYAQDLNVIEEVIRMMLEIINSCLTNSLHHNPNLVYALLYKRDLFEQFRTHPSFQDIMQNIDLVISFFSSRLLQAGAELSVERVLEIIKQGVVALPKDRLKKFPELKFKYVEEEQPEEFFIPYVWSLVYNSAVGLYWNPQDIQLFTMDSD
UniProt Q14126: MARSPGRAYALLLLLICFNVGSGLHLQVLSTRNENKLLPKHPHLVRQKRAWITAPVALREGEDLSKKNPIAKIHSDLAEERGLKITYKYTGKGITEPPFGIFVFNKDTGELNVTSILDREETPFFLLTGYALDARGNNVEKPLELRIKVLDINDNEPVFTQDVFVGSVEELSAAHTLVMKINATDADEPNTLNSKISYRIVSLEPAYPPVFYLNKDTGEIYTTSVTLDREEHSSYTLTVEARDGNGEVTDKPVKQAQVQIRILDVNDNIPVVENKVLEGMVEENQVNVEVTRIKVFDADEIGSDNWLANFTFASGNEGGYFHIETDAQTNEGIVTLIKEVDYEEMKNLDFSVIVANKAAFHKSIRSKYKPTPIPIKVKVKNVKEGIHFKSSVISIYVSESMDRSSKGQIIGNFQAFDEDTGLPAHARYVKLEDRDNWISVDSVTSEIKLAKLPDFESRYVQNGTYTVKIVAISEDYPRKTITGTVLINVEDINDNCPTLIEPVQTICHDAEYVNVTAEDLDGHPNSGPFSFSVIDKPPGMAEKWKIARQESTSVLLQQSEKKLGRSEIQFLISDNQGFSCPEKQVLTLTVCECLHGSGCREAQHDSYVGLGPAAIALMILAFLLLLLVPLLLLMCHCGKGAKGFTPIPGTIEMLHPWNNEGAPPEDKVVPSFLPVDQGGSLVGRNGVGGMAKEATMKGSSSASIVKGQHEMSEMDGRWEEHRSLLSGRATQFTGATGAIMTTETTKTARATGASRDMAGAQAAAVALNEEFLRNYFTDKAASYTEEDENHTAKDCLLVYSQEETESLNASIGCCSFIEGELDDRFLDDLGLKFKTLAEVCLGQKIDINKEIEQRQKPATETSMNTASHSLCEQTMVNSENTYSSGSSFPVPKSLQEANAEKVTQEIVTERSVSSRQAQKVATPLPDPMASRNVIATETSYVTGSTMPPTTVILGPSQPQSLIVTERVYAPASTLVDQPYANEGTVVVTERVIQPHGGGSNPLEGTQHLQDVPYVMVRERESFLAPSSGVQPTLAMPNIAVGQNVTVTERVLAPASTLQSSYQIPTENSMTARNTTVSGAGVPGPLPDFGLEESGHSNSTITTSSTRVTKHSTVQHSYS
UniProt Q9Y295: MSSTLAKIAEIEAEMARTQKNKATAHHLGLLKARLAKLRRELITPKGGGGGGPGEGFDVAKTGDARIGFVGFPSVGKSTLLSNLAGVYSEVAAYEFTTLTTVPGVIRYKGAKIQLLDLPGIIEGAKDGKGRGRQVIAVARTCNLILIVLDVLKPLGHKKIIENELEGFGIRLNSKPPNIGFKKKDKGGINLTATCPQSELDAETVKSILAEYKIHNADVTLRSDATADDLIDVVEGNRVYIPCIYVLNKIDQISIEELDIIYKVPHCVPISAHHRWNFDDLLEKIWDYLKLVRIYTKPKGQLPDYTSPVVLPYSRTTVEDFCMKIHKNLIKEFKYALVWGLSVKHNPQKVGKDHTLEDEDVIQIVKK
EEF1AKMT2, A0A494BZY7, UniProt A0A494BZY7, whole entry, looked up: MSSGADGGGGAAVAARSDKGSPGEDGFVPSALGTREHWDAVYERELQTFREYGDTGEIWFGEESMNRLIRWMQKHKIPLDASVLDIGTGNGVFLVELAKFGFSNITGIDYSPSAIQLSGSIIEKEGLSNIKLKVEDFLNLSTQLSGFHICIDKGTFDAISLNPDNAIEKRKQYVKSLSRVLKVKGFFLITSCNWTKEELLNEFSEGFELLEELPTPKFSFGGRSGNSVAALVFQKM
UniProt Q9Y6G9, whole entry, looked up: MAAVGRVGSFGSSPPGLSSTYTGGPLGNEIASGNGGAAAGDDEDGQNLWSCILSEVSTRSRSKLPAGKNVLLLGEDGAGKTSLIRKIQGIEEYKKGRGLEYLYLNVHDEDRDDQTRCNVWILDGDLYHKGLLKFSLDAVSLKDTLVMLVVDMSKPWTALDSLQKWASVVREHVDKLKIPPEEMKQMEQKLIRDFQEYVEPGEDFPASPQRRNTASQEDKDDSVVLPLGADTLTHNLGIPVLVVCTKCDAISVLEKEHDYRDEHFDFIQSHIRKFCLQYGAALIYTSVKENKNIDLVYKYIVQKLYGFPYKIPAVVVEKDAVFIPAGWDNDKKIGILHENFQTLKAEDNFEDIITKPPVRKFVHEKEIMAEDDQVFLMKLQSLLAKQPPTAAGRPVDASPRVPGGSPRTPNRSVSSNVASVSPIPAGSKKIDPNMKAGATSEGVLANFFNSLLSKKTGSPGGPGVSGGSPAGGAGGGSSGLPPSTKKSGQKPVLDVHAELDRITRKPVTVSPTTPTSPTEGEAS

compound: CC1=CC=C(C=C1)SC2=C3C=C(SC3=CN=C2)C(=O)N; assay: log2 fold change, soluble protein after heating vs DMSO (PISA); higher = thermal stabilisation; K562 lysate, 10 uM; active = over 0.2 and 3.5 SD of the protein, either way, in both replicates (recomputed)
Method in brief: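 K562 pellets were dounce-homogenised in PBS pH 7.4 with 1 mM MgCl2, and the crude extract at 1 mg/mL protein was treated with 10 μM compound for 30 min. Aliquots were heated for 3 min across 48°C-58°C, pooled, and brought to 0.5% NP-40 at 4°C; soluble protein was the supernatant after 21,000xg for 90 min. Soluble protein was quantified by TMTpro 16plex LC-MS/MS with channel sums equalised, and reported as log2 fold change in thermal stability against DMSO controls, with values from duplicates.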

Target | log2 fold change
EEF1D isoform 2 (UniProt P29692) | inactive: -0.009
DSN1 (UniProt Q9H410) | inactive: -0.011
EHBP1L1 (UniProt Q8N3D4) | inactive: -0.012
EBNA1BP2 (UniProt Q99848) | inactive: 0.023
EAPP (UniProt Q56P03) | inactive: -0.042
DSTN (UniProt P60981) | inactive: -0.003
EIF1AD (UniProt Q8N9N8) | inactive: 0.008
EHD1 (UniProt Q9H4M9) | inactive: 0.012
EEF1G isoform 2 (UniProt P26641) | inactive: 0.046
ECT2 (UniProt Q9H8V3) | inactive: -0.097
EHBP1 isoform 2 (UniProt Q8NDI1) | inactive: -0.02
DYNLT1 (UniProt P63172) | inactive: 0.028
DUSP3 (UniProt P51452) | inactive: -0.009
EEF1A1, A0A087WVQ9 | inactive: 0.004
DPH5 isoform 5 (UniProt Q9H2P9) | inactive: 0.04
DUT (UniProt P33316) | inactive: -0.023
EEF1B2 (UniProt P24534) | inactive: -0.007
DYNLL2 (UniProt Q96FJ2) | inactive: 0.008
EDRF1 (UniProt Q3B7T1) | inactive: 0.048
DUS1L (UniProt Q6P1R4) | inactive: -0.057

Target | log2 fold change
E4F1 (UniProt Q66K89) | inactive: -0.024
DPF2 (UniProt Q92785) | inactive: -0.034
DPH2 (UniProt Q9BQC3) | inactive: -0.033
EIF1B (UniProt O60739) | inactive: -0.123
EEA1 (UniProt Q15075) | inactive: -0.009
DUS2 (UniProt Q9NX74) | inactive: 0.01
ECPAS (UniProt Q5VYK3) | inactive: -0.009
DYM (UniProt Q7RTS9) | inactive: -0.065
EI24 (UniProt O14681) | inactive: 0.006
DSG2 (UniProt Q14126) | inactive: -0.044
E2F3 (UniProt O00716) | inactive: -0.142
DRG1 (UniProt Q9Y295) | inactive: 0.012
ECE1 (UniProt P42892) | inactive: -0.081
DUS3L (UniProt Q96G46) | inactive: -0.003
EHMT2 (UniProt A2ABF8) | inactive: 0.006
EEF1AKMT2, A0A494BZY7 | inactive: -0.064
DPP8 (UniProt Q6V1X1) | inactive: 0.088
DYNC1LI1 (UniProt Q9Y6G9) | inactive: 0.002
DPY19L1, A0A1B0GW05 | inactive: 0.022

Single entries from above.
log2 fold change, EDRF1 (UniProt Q3B7T1) reads inactive: 0.048
log2 fold change, E2F3 (UniProt O00716) reads inactive: -0.142
log2 fold change, EBNA1BP2 (UniProt Q99848) reads inactive: 0.023
